According to publication PMC10345124:
Results are given in words; binding and its absence hold for the method and conditions named. Binding seen in cells or lysates may run through a third protein. Some results given as binding are weak or reduced against the parent protein; the word gives no strength.

Sequences of proteins named here, by UniProt entry; tags and fusion partners are left off.
UniProt Q05127: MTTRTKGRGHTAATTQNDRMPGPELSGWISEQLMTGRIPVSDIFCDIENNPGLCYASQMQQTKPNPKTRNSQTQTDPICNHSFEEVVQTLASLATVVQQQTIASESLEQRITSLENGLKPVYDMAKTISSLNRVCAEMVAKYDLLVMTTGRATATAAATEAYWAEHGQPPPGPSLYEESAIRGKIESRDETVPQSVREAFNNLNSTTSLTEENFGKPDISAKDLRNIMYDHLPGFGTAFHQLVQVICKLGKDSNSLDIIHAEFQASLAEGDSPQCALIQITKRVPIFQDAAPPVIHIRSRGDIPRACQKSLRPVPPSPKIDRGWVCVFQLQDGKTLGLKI
UniProt Q05318: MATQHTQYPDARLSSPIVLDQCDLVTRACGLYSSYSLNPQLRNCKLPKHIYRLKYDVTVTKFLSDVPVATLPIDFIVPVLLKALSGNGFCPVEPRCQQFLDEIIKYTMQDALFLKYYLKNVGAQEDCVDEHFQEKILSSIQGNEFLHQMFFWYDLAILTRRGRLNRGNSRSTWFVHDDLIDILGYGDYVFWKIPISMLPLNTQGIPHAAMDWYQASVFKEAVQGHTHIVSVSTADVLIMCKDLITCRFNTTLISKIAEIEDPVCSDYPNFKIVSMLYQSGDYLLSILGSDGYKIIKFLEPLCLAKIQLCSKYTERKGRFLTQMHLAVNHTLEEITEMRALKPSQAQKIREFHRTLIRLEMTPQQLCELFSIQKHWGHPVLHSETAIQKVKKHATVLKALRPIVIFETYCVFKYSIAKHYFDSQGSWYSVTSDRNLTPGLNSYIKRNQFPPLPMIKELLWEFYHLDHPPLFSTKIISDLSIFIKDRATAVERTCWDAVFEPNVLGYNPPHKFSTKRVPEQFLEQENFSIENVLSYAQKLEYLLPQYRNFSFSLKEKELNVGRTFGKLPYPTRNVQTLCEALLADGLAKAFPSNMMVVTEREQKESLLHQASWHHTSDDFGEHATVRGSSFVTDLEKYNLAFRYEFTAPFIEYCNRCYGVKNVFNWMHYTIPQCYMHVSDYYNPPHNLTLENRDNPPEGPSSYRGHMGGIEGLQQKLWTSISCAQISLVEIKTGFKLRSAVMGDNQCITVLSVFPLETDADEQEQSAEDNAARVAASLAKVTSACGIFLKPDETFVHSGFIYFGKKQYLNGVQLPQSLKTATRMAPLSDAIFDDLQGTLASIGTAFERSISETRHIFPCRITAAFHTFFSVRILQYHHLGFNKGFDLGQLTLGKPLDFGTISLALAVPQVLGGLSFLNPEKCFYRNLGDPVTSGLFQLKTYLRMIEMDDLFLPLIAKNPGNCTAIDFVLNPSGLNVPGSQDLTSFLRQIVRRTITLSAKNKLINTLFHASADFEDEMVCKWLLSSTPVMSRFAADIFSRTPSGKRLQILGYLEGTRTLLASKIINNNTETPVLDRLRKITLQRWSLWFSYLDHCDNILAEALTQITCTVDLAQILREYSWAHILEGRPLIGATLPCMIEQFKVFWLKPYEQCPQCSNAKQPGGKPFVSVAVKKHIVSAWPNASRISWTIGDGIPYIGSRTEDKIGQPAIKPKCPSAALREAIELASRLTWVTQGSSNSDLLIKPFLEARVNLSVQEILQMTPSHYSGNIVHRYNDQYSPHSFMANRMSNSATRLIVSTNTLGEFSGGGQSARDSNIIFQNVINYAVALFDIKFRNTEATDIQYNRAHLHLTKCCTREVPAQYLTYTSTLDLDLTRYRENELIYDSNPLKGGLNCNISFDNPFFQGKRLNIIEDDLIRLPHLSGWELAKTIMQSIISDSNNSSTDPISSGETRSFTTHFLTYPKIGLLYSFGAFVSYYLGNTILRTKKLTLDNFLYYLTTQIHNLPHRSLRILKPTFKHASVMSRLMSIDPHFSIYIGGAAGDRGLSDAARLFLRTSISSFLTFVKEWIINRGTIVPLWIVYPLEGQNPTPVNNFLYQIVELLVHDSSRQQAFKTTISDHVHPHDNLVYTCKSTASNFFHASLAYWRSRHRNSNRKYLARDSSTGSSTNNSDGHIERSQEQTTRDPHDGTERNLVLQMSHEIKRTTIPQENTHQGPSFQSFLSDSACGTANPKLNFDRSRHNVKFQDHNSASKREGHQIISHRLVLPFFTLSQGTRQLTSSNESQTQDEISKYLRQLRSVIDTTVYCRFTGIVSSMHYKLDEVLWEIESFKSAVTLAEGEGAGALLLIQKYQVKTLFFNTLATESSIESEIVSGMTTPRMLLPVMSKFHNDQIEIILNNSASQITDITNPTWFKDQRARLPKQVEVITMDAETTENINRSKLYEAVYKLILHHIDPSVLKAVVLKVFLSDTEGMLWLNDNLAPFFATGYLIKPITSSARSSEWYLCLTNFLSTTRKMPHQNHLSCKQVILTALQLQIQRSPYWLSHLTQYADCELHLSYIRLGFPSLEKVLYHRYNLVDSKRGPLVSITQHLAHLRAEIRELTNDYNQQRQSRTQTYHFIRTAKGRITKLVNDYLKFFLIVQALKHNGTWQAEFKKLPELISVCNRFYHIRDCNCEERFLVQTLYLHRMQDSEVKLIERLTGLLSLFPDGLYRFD

Target: HA-VP35 (EBOV VP35 with an N-terminal HA epitope tag and flexible linker) (Ebola virus Zaire (EBOV)) (UniProt Q05127)
Test: co-IP

EBOV large polymerase protein (L), wild type (from UniProt Q05318 1-2212) (enzyme)
binding: binds
